## Percent effect of library compounds

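Whole-cell growth test on Mycobacterium tuberculosis, read after 4 days in a medium based on cholesterol and the lipid DPPC; the read-out is not stated. Tested at 50 µM. Higher reads as more growth inhibition (inferred: compounds with an IC50 in retests scored well above the rest). Of about 69,000 compounds tested this way, about 370 (0.54%) reached 50% or more in at least one test.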

Each number is a percent effect as filed.
The record does not define 0% and 100%; most values in the screen are far below 50% and negative numbers occur (in some assays of this library far below -100).
The compounds are a random part of those screened.
Two or more numbers in one place are separate tests of the same structure; such repeats can differ widely.

structure	effect
CC(C)(CNc1cn[nH]c(=O)c1Cl)c1ccc2c(c1)OCCO2	-15.98
CCC(C)N(C)S(=O)(=O)c1ccc(CCNC(C)=O)s1 (stereo not shown)	1.598
Cn1cc(C[C@H]2[C@@H](O)CCN2C(=O)C2CC=CC2)cn1	-15.57
[H][C@]12CC[C@]([H])(CN(c3cc(N)nc(SC)n3)C1)N(Cc1cscn1)C2=O	-8.222
COc1cc(Cl)cc(CN2CCCC(N3CCCC3)C2)c1OC (stereo not shown)	43.03
Cc1cc(C)nc(N2CCC(c3noc(C)n3)CC2)n1	38.28
Cc1cc(NC(=O)NCc2cccnc2OC(C)C)n(C)n1	-24.25
CCN(CC(=O)NC)C(=O)c1sc(Cc2ccccc2)nc1C	-4.893
Fc1ccccc1-c1nc(CNCCn2cccn2)cs1	38.27
COc1ccc(-c2ccc(C(=O)N3CCOCC3CC(=O)O)o2)cc1 (stereo not shown)	-3.156
Cc1nc(CN2CCN(c3cncc(Cl)n3)CC2)no1	-12.9
Cc1c(CS(C)(=O)=O)cccc1NCC1CCCCC1	-7.774
CC(C)n1cnnc1CN1C(=O)CCc2ccccc21	-8.391
O=C(O)c1cc(-c2ccncc2F)cc(S(=O)(=O)N2CCCCCC2)c1	-4.745
Cc1ncccc1OC1(C(=O)NCCC2CCCN2C)CCNCC1 (stereo not shown)	9.052
Cc1nsc(N2CCCN(C(=O)NCc3cccnc3)CC2)n1	-8.802 and -14.1
O=C(O)C(F)(F)F.[H][C@@]12CCN(c3cnccn3)C[C@]1([H])CN(C(=O)c1cncn1C)C2	-11.17
Cc1nn(C)c(C)c1-c1cnc(C2CCCN(S(C)(=O)=O)C2)cn1 (stereo not shown)	-6.563
O=C(NCCN1CCCC1)Nc1cc(C(=O)N2CCOCC2)ccc1Cl	1.997
CC(C)(C)C(=O)N1CCC2(CNS(=O)(=O)c3cnccc3O2)C1 (stereo not shown)	-20.74
O=C(Nc1cc[nH]n1)c1ccc(COCC(F)(F)F)cc1	-3.729
CNc1nc(CNC(=O)Nc2ccc(OC(C)C)cc2C)cs1	-8.086 and -6.938
O=C(CN1CCCCC1)Nc1ncc(Br)cc1Br	-10.82
CC(=O)NCCNC(=O)Nc1ccc(C)cc1OCc1ccccc1	3.669
Cc1noc(C)c1CNC(=O)N1CCC(OCC2CC2)CC1	-21.2 and -12.38
Cc1oncc1C(=O)N1CCCc2c(C#N)nn(C)c2C1	-11.71
N#CC1COCCN1S(=O)(=O)c1ccc(F)c(Br)c1 (stereo not shown)	-16.76
COCCCN1CC2(CCCN(c3ncc4nc[nH]c4n3)C2)CCC1=O (stereo not shown)	5.015
COc1cc(C(=O)N2CCCC(n3cncn3)C2)ccc1C (stereo not shown)	0.5576
Cl.OC1(c2ccc(F)cc2)CCN(Cc2ccccc2N2CCCC2)CC1	24.63
Cc1cc(C(=O)N2CC(O)CO2)c2cccc(C)c2n1 (stereo not shown)	9.324
COCC(NC(=O)NCc1sc(C)nc1C)c1ccco1 (stereo not shown)	-30.08
O=C(O)C(F)(F)F.[H][C@]12C[C@H](C(=O)NC)N(C)[C@@]1([H])CN(S(=O)(=O)c1cccc(C)c1)C2	-13.1
CC(C)n1[nH]c(=O)c2c1NC(=O)CC2c1ccc2ncccc2c1 (stereo not shown)	-32.82
CCc1nc(CN2CCN(C(=O)c3cc(C)nn3C)CC2)cs1	3.012
[H][C@@]12OCCN(C(=O)c3ccncc3)[C@@]1([H])CC[C@H]2OCCN(C)C	2.552
Cc1ccc(N2CCC3(CCC(=O)N3)CC2)nn1	3.754
CCn1cc(CNC(=O)C2CCCC2)cn1	3.398
Cc1ccc(C(=O)Nc2ccccc2N2CCCC2)n1C	35.98
Cc1cnn(CC2CCCCN2CC(=O)NCc2ccccn2)c1 (stereo not shown)	-3.401
Cc1n[nH]c(C)c1Sc1ccccc1NC(=O)N1CCN(C)CC1	-68.31
Cc1ccccc1C(=O)CN1C(=O)c2ccccc2CS1(=O)=O	3.47
Cc1ncc(CN2CCCC(c3nc4ccccc4n3C(C)C)C2)s1 (stereo not shown)	-8.038
CCO[C@@H]1CCN(C(=O)N(C)C)[C@@H]1Cc1cnn(C)c1	-4.543 and -14.23
Cc1cc(CN2CCN(Cc3cc(C#N)ccc3F)CC2)no1	-7.684
CC(C)C(NC(=O)Nc1ccccn1)c1cccs1 (stereo not shown)	-24.31
CC(=O)c1cn(CC(=O)N[C@H](C(=O)O)C(C)C)c2ccccc12	-3.16
CCCn1nc(-c2nc(COC)no2)ccc1=O	-22.43
CCOCCN1CCN(c2ncccc2C#N)CC1CC (stereo not shown)	-17.14
Nc1ccnc(N2CCC(CCc3ccccc3)(C(=O)O)CC2)n1	-0.9505
Cc1c(NC(=O)C(C)N(C)C)c(=O)n(-c2ccccc2)n1C (stereo not shown)	-18.9
N#Cc1cccnc1N1CCCC(CO)(Cc2cccc(Cl)c2)C1 (stereo not shown)	-3.113
CCn1cnnc1C1CCN(C(=O)c2cc3c(s2)CCCC3)CC1	-8.918
CCN(Cc1cnn(C)c1)S(=O)(=O)c1ccc(NC(C)=O)cc1	-4.365 and -4.296
Clc1ccc(OCCc2cc(C3CCN(c4ncccn4)C3)n[nH]2)cc1 (stereo not shown)	58.2 and 43.19
COc1ccc(C2CCCN2Cc2nc3c(cnn3C)c(=O)[nH]2)cc1 (stereo not shown)	5.047
Cc1ccc(C)c2c(O)cc(CN3CCNC(=O)C3C)nc12 (stereo not shown)	-35.59
O=C(NCCN1CCCC1)C1(c2ccc(Cl)cc2)CCOCC1	15.12
Cc1cc(N2CCN(C(=O)c3cc(Cl)c[nH]3)CC2)nc(C)n1	9.986 and -4.201
CCn1cc(-c2cc(C(F)(F)F)nc(NC3CCCC3)n2)c(C)n1	26.73
Cc1ccc(C(=O)Nc2ccc3c(c2)N(C)CCN(C)C3)c(=O)[nH]1	-5.4 and -10.21
Cc1nncn1CCNC(=O)C(C)(C)c1cccc(Cl)c1	7.345
NC(=O)C1CCN(CCc2ccc(NCc3cscn3)cc2)CC1	5.693
CCCN(C)c1ccc(C(=O)NCc2ccnc(C)n2)cc1	-14.56
Cc1ccc(-c2nnc(NC(=O)c3ccn(C)c(=O)c3)[nH]2)s1	1.265
CN(C)C(=O)CCC1CCCN(Cc2cccc(-c3ccccn3)c2)C1 (stereo not shown)	-16.68
[H][C@@]12CN(C(=O)c3ccnnc3)C[C@]1([H])CN(c1ncccn1)C2	-15.54
O=C(NCCNC(=O)C1Cc2cc(F)ccc2O1)C1CCCCC1 (stereo not shown)	7.659
O=C(c1cc(C2CCCC2)no1)N1CC(O)C1	10.83
CN(C)CCCn1ccc(-c2cccc(-c3cncnc3)c2)n1	1.661
CC(C)(C)C(=O)N1CCN(C(=O)Nc2cnn(CC(F)F)c2)CC1	9.728
COc1cccc2c1OCC(CNC(=O)Cn1ccnc1C)C2 (stereo not shown)	-12.89 and -6.255
Cc1ccc(CN(C)C(=O)c2cc(Cn3ccnc3C(C)C)[nH]n2)o1	2.414
CC(C)NC(=O)Cc1cnc(-n2cccc2)s1	-15.84

For reference, 8 entries once more:

- COc1cc(C(=O)N2CCCC(n3cncn3)C2)ccc1C (stereo not shown) | 0.5576%
- CN(C)C(=O)CCC1CCCN(Cc2cccc(-c3ccccn3)c2)C1 (stereo not shown) | -16.68%
- CC(C)NC(=O)Cc1cnc(-n2cccc2)s1 | -15.84%
- CCn1cc(-c2cc(C(F)(F)F)nc(NC3CCCC3)n2)c(C)n1 | 26.73%
- CN(C)CCCn1ccc(-c2cccc(-c3cncnc3)c2)n1 | 1.661%
- CCc1nc(CN2CCN(C(=O)c3cc(C)nn3C)CC2)cs1 | 3.012%
- Cc1cc(N2CCN(C(=O)c3cc(Cl)c[nH]3)CC2)nc(C)n1 | 9.986% and -4.201%
- NC(=O)C1CCN(CCc2ccc(NCc3cscn3)cc2)CC1 | 5.693%

The values are deposited in ChEMBL (CHEMBL3988442, “University of Dundee, Small-Polar-MMV Screening Library” (2021)).